Results: PubChem BioAssay AID652054 (National Center for Advancing Translational Sciences (NCATS), 2013)
In all, about 360,000 compounds went through this assay and about 9,100 (2.5%) were called active. Inconclusive results, whose numbers are uncertain, are shown with a selection of clear calls. Rule as the data show it: active = max response below about -50%; inconclusive = no clear call, values can overlap the other calls; inactive = above that.

Protein sequences, listed by entry. Tags and fused reporters are not part of them.
UniProt P35462, whole entry, looked up: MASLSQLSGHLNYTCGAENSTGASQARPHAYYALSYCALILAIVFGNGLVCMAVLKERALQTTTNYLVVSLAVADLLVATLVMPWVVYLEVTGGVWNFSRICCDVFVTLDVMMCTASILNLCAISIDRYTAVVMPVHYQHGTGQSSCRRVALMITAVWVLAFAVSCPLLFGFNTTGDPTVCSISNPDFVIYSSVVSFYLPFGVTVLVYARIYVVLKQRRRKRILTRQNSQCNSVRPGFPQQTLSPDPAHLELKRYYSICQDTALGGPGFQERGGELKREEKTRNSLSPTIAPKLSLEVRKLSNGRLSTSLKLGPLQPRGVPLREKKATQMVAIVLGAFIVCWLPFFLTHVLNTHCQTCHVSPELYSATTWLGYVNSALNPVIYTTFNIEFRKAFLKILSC

Molecular target: D(3) dopamine receptor (Homo sapiens) (UniProt P35462)
Experiment: qHTS of D3 Dopamine Receptor Antagonist: qHTS
Settings: D3R cells, DiscoveRx beta-arrestin luminescence, antagonist mode; stronger effect = lower value
Summary of the method: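 Cells expressing the human receptor were seeded at 1500 cells/well, incubated overnight at 37 degrees C in 5% CO2, then exposed to library compounds with dopamine controls for 90 minutes at 37 degrees C before luminescent detection.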
% is scaled to controls: 0 for no effect and ±100 for the full control effect.

SMILES	max response, negative = inhibition
Cc1nc(-c2ccc(C(=O)Nc3cccc(Br)c3)cc2)cs1	inactive: -0.601%
O=C(N/C(=C/c1ccc(Cl)cc1)C(=O)N1CCCCC1)c1ccco1	inconclusive: -39.6%
Cc1c(C(=O)N2CCCC2)oc2c1-c1nn(CC(=O)NCCCN3CCCCC3C)cc1CC2 (configuration not stated)	inactive: -10.3%
O=C(Sc1ccc(Cl)cc1)c1ccccn1	inconclusive: -35.4%
CCC(=O)c1ccc(N2CCN(C(=O)c3cc([N+](=O)[O-])ccc3N3CCN(C)CC3)CC2)c(F)c1	inconclusive: -34.9%
O=C(CCc1nnc2ccc(NCc3ccco3)nn12)Nc1ccc(F)cc1	inactive: 4.63%
Cc1ccc(S(=O)(=O)c2c(N)n(Cc3ccco3)c3nc4ccccc4nc23)cc1C	inactive: 22.3%
COc1ccccc1NC(=O)C(=O)Nc1ccccn1	active: -83.6%
O=C(Cn1cc[n+](CC(=O)c2ccc(Cl)cc2Cl)c1)c1ccc(Cl)cc1Cl	inconclusive: -36.8%
COc1ccc(C(CCN2CCOCC2)c2c(OC)cc(OC)c3c(C)cc(=O)oc23)cc1 (configuration not stated)	inconclusive: -38%
COc1ccc(/C=C/C(=O)c2cc3cccc(OC)c3oc2=O)cc1	inconclusive: -38.8%
COC(=O)c1ccc(-n2nnnc2SC)cc1	inconclusive: -33.2%
Cc1sc2ncnc(SCC(=O)NC3CC3)c2c1C	inactive: 46.9%
CCC(=O)c1ccc(OCC(O)CN2CCN(C(c3ccccc3)c3ccccc3)CC2)cc1 (configuration not stated)	active: -88.2%
CC(C)NC(=O)C(Sc1ccccc1)c1ccccc1 (configuration not stated)	inactive: 4.08%
Cc1ccc(C)c(CN2C(=O)c3ccccc3S(=O)c3ccc(C(=O)NCCCN4CCCC4)cc32)c1 (configuration not stated)	inconclusive: -38.9%
Nc1nc(CN2CCN(c3ccccc3F)CC2)nc(Nc2ccc3c(c2)OCCO3)n1	inconclusive: -39.6%
CSc1ccc(C(=S)N2CCN(Cc3ccccc3)CC2)cc1	inconclusive: -49.1%
Cc1ccccc1-n1nc2c(c1NC(=O)c1cccc(F)c1)CS(=O)C2 (configuration not stated)	inconclusive: -32.5%

SMILES	max response, negative = inhibition
CN(C)/C=C1/Nc2ccccc2C1=O	inconclusive: -34.9%
COc1ccc(/C=N/NC(=O)c2cc3c(OC)ccc(OC)c3[nH]2)cc1O	inactive: 4.6%
Cc1c(C(=O)OCc2ccccc2)nnn1-c1nonc1N	inconclusive: -39.1%
O=C(O)c1ccc2c(c1)-c1nc3ccccc3n1C2=O	inconclusive: -36.2%
COc1cc2[nH]c(=S)n(CCCN3CCOCC3)c(=O)c2cc1OC	inconclusive: -46.1%
C=CCO/N=C/C1C(=O)CC(C)(C)CC1=O	inconclusive: -32.7%
Clc1ccc(SCc2cn3ccsc3n2)cc1	inconclusive: -46.7%
CC1CCN(CCOc2cc(Cl)ccc2Cl)CC1	inconclusive: -34.8%
O=S(=O)(c1cccs1)N1CCN(CC(O)COc2cccc(Br)c2)CC1 (configuration not stated)	inconclusive: -48.4%
O=C(N/N=C/c1ccc(-c2ccccc2Cl)o1)c1ccccc1	inconclusive: -31.2%
COc1ccc(C(=O)NC(=S)Nc2ccc(N3CCOCC3)c(Cl)c2)cc1[N+](=O)[O-]	inconclusive: -45%
Cc1cc(C)cc(NC(=O)CSc2nnc(CNC(=O)c3ccco3)o2)c1	inactive: -18.4%
COc1ccc(N2CCN(Cc3nc4c(c(=O)n(C)c(=O)n4C)n3CC(C)=O)CC2)cc1	inactive: 19.1%
COC(=O)[C@@H]1[C@@H](C#N)C2(c3ccccc3-c3ccccc32)N(c2ccc(Cl)cc2)N1C#N	active: -54.2%
COc1ccc(N/N=C(/Oc2ccc([N+](=O)[O-])cc2)C(C)=O)cc1	inconclusive: -37.2%
CCN(CC)S(=O)(=O)c1ccc(OC)c(NC(=O)c2cc(C)on2)c1	inconclusive: -33.2%
O=C(Nc1ccc(Cl)cn1)c1cccnc1	active: -51.3%
CCCCCCCCN1C(=O)[C@H](CC(=O)N2CCOCC2)C[C@@]2(C(=O)OC)CCCCC=C12	inactive: 0%
CNc1sc(C(=O)c2cccs2)c(N)c1-c1nc2ccccc2s1	inconclusive: -35.7%

Quoted from above, 15 compounds:
SMILES	max response, negative = inhibition
COc1ccc(/C=N/NC(=O)c2cc3c(OC)ccc(OC)c3[nH]2)cc1O	inactive: 4.6%
Cc1c(C(=O)OCc2ccccc2)nnn1-c1nonc1N	inconclusive: -39.1%
O=C(O)c1ccc2c(c1)-c1nc3ccccc3n1C2=O	inconclusive: -36.2%
COc1cc2[nH]c(=S)n(CCCN3CCOCC3)c(=O)c2cc1OC	inconclusive: -46.1%
C=CCO/N=C/C1C(=O)CC(C)(C)CC1=O	inconclusive: -32.7%
Clc1ccc(SCc2cn3ccsc3n2)cc1	inconclusive: -46.7%
CC1CCN(CCOc2cc(Cl)ccc2Cl)CC1	inconclusive: -34.8%
O=S(=O)(c1cccs1)N1CCN(CC(O)COc2cccc(Br)c2)CC1 (configuration not stated)	inconclusive: -48.4%
O=C(N/N=C/c1ccc(-c2ccccc2Cl)o1)c1ccccc1	inconclusive: -31.2%
COc1ccc(C(=O)NC(=S)Nc2ccc(N3CCOCC3)c(Cl)c2)cc1[N+](=O)[O-]	inconclusive: -45%
Cc1cc(C)cc(NC(=O)CSc2nnc(CNC(=O)c3ccco3)o2)c1	inactive: -18.4%
COc1ccc(N2CCN(Cc3nc4c(c(=O)n(C)c(=O)n4C)n3CC(C)=O)CC2)cc1	inactive: 19.1%
COC(=O)[C@@H]1[C@@H](C#N)C2(c3ccccc3-c3ccccc32)N(c2ccc(Cl)cc2)N1C#N	active: -54.2%
COc1ccc(N/N=C(/Oc2ccc([N+](=O)[O-])cc2)C(C)=O)cc1	inconclusive: -37.2%
CCN(CC)S(=O)(=O)c1ccc(OC)c(NC(=O)c2cc(C)on2)c1	inconclusive: -33.2%

The listing continues:

SMILES	max response, negative = inhibition
CCOC(=O)C1CCN(C(=O)COC(=O)c2ccc3[nH]c4c(c3c2)CCCC4)CC1	inconclusive: -43.7%
NC(=O)c1c(N)[nH]c(C(=O)c2ccccc2)c1-c1ccncc1	inconclusive: -43.1%
O=S(=O)(NC(=S)NC1CCCCC1)c1ccccc1	inconclusive: -35.4%
S=c1nc(-c2cccc(Cl)c2)[nH][nH]1	active: -55.4%
Cn1c(CN2CCOCC2)nc2cc(NC(=O)c3ccccc3Cl)ccc21	inconclusive: -44.6%
CC1CCN(CCCNc2cc(NCCO)c([N+](=O)[O-])c3nonc23)CC1	inactive: -19.7%
COc1ccc(C(CNC(=O)c2ccc3c(c2)OCCO3)N(C)C)cc1 (configuration not stated)	inconclusive: -37.7%
CCc1nnc(NS(=O)(=O)c2ccc(NC(=O)c3cccc(Cl)c3)cc2)s1	active: -68.3%
CCN(CC)C(=O)Cn1nc(C)c2ccccc2c1=O	inconclusive: -40.9%
Cc1ccc(NC(=S)NCc2cccn2C)cc1	inactive: -16.4%
Cc1c(NS(C)(=O)=O)c(=O)n(-c2ccccc2)n1C	inconclusive: -35.7%
CN(C)C(=O)/C(=C\c1cccc(Oc2ccccc2)c1)NC(=O)c1ccccc1	inconclusive: -33.5%
Cc1ccc(C)c(N2CCN(CCCNC(=O)Cn3cc4c(n3)CCC(C)C4)CC2)c1 (configuration not stated)	active: -60.4%
O=C(NNC(=O)C12CC3CC(CC(C3)C1)C2)c1ccccn1	inconclusive: -48.3%
CCOC(=O)C(C)(C)N(Cc1cccc(C)c1)S(=O)(=O)c1cccc([N+](=O)[O-])c1	inactive: 1.17%
COC(=O)C1CCN(Cc2ccc(OCCCN3CCN(c4ccc([N+](=O)[O-])cc4)CC3)cc2)CC1	active: -51.7%
COc1ccccc1CNc1nc(NCc2ccc(C(C)C)cc2)c2sccc2n1	inconclusive: -42.3%
CCOC(=O)Nc1ccc2c(c1)C(=NNC(N)=S)c1ccccc1-2	inconclusive: -45.4%
O=c1[nH]c2cc3c(cc2cc1CN(Cc1cccnc1)Cc1nnnn1Cc1ccco1)OCCO3	inactive: 7.69%
